# According to PubChem BioAssay AID330 (DTP/NCI, 2004):
# The list is a part of this screen's results and no random one: it gathers tests that were run many times, whatever their T/C, doses with no T/C, and many T/C values between a quarter and a half above the control. Other doses and runs of a compound stand elsewhere. T/C gives the treated animals as a percentage of the vehicle group. Some doses have a count of surviving animals in place of a T/C: the source files T/C as zero there, which appears to mark a toxic dose or a test without result, not a measured value. Some survivor counts are full or nearly so, which does not show that the dose was tolerated: the source hardly ever lists a survival T/C far under the control, and the zero likely stands for such cases as well. Survivors were counted at the toxicity check, usually on the fifth day, unless a day is given; later deaths do not show. Schedules are NCI's codes, taken here to give the interval after Q, in days (D) or hours (H), and the number of doses after X. Where survival is the endpoint, this PubChem deposit counts one and a half times the control or more as active, and values a quarter to a half above the control carry no call in these data; other NCI protocols may use other cut-offs. Brackets with × count equal records among those shown. Some doses were run more than once; the values are given in rising order.
# System: P388 leukemia ip, CD2F1 mice, survival T/C
# Experiment: NCI In Vivo Anticancer Drug Screen. Data for tumor model P388 Leukemia (intraperitoneal) in CD2F1 (CDF1) mice
# Conditions: T/C endpoint: median survival time, higher T/C = longer survival
# [1] = dose: 200.0 mg/kg/injection, schedule: Q01DX009 (ip), vehicle: saline with Tween-80
# [2] = dose: 200.0 mg/kg/injection, schedule: Q01DX009 (ip), vehicle: Klucel (hydroxypropylcellulose) (HPC)
# [3] = dose: 240.0 mg/kg/injection, schedule: Q01DX005 (ip), vehicle: Klucel (hydroxypropylcellulose) (HPC)
# [4] = dose: 100.0 mg/kg/injection, schedule: Q01DX005 (ip), vehicle: saline with Tween-80
# [5] = dose: 100.0 mg/kg/injection, schedule: Q04DX002 (ip), vehicle: saline
# [6] = dose: 25.0 mg/kg/injection, schedule: Q01DX009 (ip), vehicle: saline with Tween-80
smiles,measurement,setting,value
COc1ccc(-c2cc3cc(CCCOC4OC(COC5OCC(O)C(O)C5O)C(O)C(O)C4O)cc(OC)c3o2)cc1OC (stereo unspecified),survivor count,"dose: 75.0 mg/kg/injection, schedule: Q01DX005 (ip), vehicle: Klucel (hydroxypropylcellulose) (HPC)",6 of 6
same,survivor count,"dose: 150.0 mg/kg/injection, schedule: Q01DX005 (ip), vehicle: Klucel (hydroxypropylcellulose) (HPC)",6 of 6
Cc1cnc(C)c2ccccc12,survivor count,[1],0 of 6
CC[C@]1(O)CN2CCc3c([nH]c4ccccc34)[C@@](C(=O)OC)(c3cc4c(cc3OC)N(C)[C@H]3[C@@](O)(C(=O)OC)[C@H](OC(C)=O)[C@]5(CC)C=CCN6CC[C@]43[C@@H]65)C[C@H](C2=O)[C@H]1O,T/C,"dose: 32.0 mg/kg/injection, schedule: Q01DX001 (ip), vehicle: water",127 % of control (2×)
same,T/C,"dose: 64.0 mg/kg/injection, schedule: Q01DX001 (ip), vehicle: water",132 and 136 % of control
same,survivor count,"dose: 256.0 mg/kg/injection, schedule: Q01DX001 (ip), vehicle: water",3 of 6
Cc1cccnc1Br,survivor count,"dose: 50.0 mg/kg/injection, schedule: Q01DX009 (ip), vehicle: water",6 of 6
same,survivor count,"dose: 100.0 mg/kg/injection, schedule: Q01DX009 (ip), vehicle: water",6 of 6
same,survivor count,"dose: 400.0 mg/kg/injection, schedule: Q01DX009 (ip), vehicle: water",0 of 6
CCCCN(CCCC)C(Cl)=NCCC,survivor count,[2],4 of 6
CC1(C)C(=O)C(C)(C)C1O,survivor count,"dose: 400.0 mg/kg/injection, schedule: Q01DX009 (ip), vehicle: saline",1 of 6
CN1c2ccccc2SC1(C)CCC(=O)O (stereo unspecified),survivor count,[3],1 of 6
Cc1cc2nc3[nH]c(=O)c4ccccc4c(=O)n3c2cc1C,survivor count,"dose: 400.0 mg/kg/injection, schedule: Q01DX001 (ip), vehicle: Klucel (hydroxypropylcellulose) (HPC)",6 of 6
Cc1cc[n+](Cc2cc3ccccc3nc2Cl)cc1C,survivor count,"dose: 30.0 mg/kg/injection, schedule: Q01DX005 (ip), vehicle: saline",3 of 6
same,survivor count,"dose: 60.0 mg/kg/injection, schedule: Q01DX005 (ip), vehicle: saline",0 of 6
same,survivor count,"dose: 120.0 mg/kg/injection, schedule: Q01DX005 (ip), vehicle: saline",0 of 6
same,survivor count,"dose: 240.0 mg/kg/injection, schedule: Q01DX005 (ip), vehicle: saline",0 of 6
Cc1cc2c(cc1C)C(=O)C(Br)=C(N)C2=O,survivor count,[4],6 of 6
CN=C(N)N/N=C/c1ccc(-c2ccccc2)cc1,survivor count,[5],1 of 6
COc1cccc(O)c1O,survivor count,"dose: 600.0 mg/kg/injection, schedule: Q01DX009 (ip), vehicle: saline",1 of 6
N=C(N)c1ccc(Oc2ccc(Oc3ccc(C(=N)N)cc3)cc2)cc1,T/C,"dose: 12.5 mg/kg/injection, schedule: Q01DX009 (ip), vehicle: saline",130 % of control
same,survivor count,[6],0 of 6
COc1c2occc2c(CCl)c2ccc(=O)oc12,survivor count,"dose: 120.0 mg/kg/injection, schedule: Q01DX005 (ip), vehicle: Klucel (hydroxypropylcellulose) (HPC)",4 of 6
same,survivor count,[3],0 of 6
CCCCN=C(N)N/N=C/c1c2ccccc2c(C)c2ccccc12,survivor count,"dose: 100.0 mg/kg/injection, schedule: Q04DX002 (ip), vehicle: saline with Tween-80",1 of 6
same,survivor count,"dose: 200.0 mg/kg/injection, schedule: Q04DX002 (ip), vehicle: saline with Tween-80",0 of 6
O=C(NC(Cc1ccc(O)cc1)C(=O)N=Nc1c(O)[nH]c2ccccc12)c1ccccc1 (stereo unspecified),survivor count,"dose: 120.0 mg/kg/injection, schedule: Q01DX005 (ip), vehicle: saline with Tween-80",6 of 6
Cc1c(C=[N+]2CCCCC2)c2ccccc2n1C,survivor count,[1],2 of 6
CC(=O)N/N=C/c1ccccc1[N+](=O)[O-],survivor count,"dose: 200.0 mg/kg/injection, schedule: Q01DX009 (ip), vehicle: other",0 of 6
CC[N+]1(CC)c2ccccc2CC1C (stereo unspecified),survivor count,"dose: 100.0 mg/kg/injection, schedule: Q01DX001 (ip), vehicle: saline",0 of 6
same,survivor count,"dose: 200.0 mg/kg/injection, schedule: Q01DX001 (ip), vehicle: saline",0 of 6
same,survivor count,"dose: 400.0 mg/kg/injection, schedule: Q01DX001 (ip), vehicle: saline",0 of 6
S=C(Cl)N1CCN(C(=S)Cl)CC1,survivor count,"dose: 100.0 mg/kg/injection, schedule: Q01DX009 (ip), vehicle: Klucel (hydroxypropylcellulose) (HPC)",5 of 6
same,survivor count,[2],0 of 6
O=C(O)c1ccc(N2C(=O)C3C4CCC(O4)C3C2=O)cc1 (stereo unspecified),survivor count,"dose: 25.0 mg/kg/injection, schedule: Q01DX005 (ip), vehicle: saline with Tween-80",3 of 6
same,survivor count,"dose: 50.0 mg/kg/injection, schedule: Q01DX005 (ip), vehicle: saline with Tween-80",3 of 6
same,survivor count,[4],0 of 6
same,survivor count,"dose: 200.0 mg/kg/injection, schedule: Q01DX005 (ip), vehicle: saline with Tween-80",0 of 6
ClCCN(CCCl)c1ccc(CN2CCCCCC2)cc1,survivor count,"dose: 50.0 mg/kg/injection, schedule: Q01DX009 (ip), vehicle: saline",5 of 6
same,survivor count,"dose: 100.0 mg/kg/injection, schedule: Q01DX009 (ip), vehicle: saline",1 of 6
same,survivor count,"dose: 200.0 mg/kg/injection, schedule: Q01DX009 (ip), vehicle: saline",0 of 6
Cc1nnc2c([Se])nccn12,survivor count,"dose: 400.0 mg/kg/injection, schedule: Q01DX001 (ip), vehicle: saline with Tween-80",2 of 6
NCC[Se]CC(N)C(=O)O (stereo unspecified),survivor count,[5],3 of 6
same,survivor count,"dose: 200.0 mg/kg/injection, schedule: Q04DX002 (ip), vehicle: saline",1 of 6
same,survivor count,"dose: 400.0 mg/kg/injection, schedule: Q04DX002 (ip), vehicle: saline",1 of 6
COc1cc2c(cc1OC)C13CCN4CC5=CCOC6CC(=O)N2C1C6C5C3C4 (stereo unspecified) (tested in a mixture with another compound),survivor count,"dose: 100.0 mg/kg/injection, schedule: Q01DX005 (ip), vehicle: saline",1 of 5
same,survivor count,"dose: 200.0 mg/kg/injection, schedule: Q01DX005 (ip), vehicle: saline",0 of 5
CS(=O)(=O)OCCN(CCOS(C)(=O)=O)c1cccc(C(F)(F)F)c1,T/C,"dose: 6.25 mg/kg/injection, schedule: Q04DX003 (ip), vehicle: saline with Tween-80",130 % of control
same,T/C,"dose: 12.5 mg/kg/injection, schedule: Q04DX003 (ip), vehicle: saline with Tween-80",140 % of control
same,T/C,[6],145 % of control
CN=C(NC)c1ccc(NC(=O)c2cc(C(=O)Nc3ccc(C(=NC)NC)cc3)cc([N+](=O)[O-])c2)cc1,survivor count,"dose: 25.0 mg/kg/injection, schedule: Q01DX005 (ip), vehicle: Klucel (hydroxypropylcellulose) (HPC)",6 of 6
same,survivor count,"dose: 50.0 mg/kg/injection, schedule: Q01DX005 (ip), vehicle: Klucel (hydroxypropylcellulose) (HPC)",0 of 6
same,survivor count,"dose: 100.0 mg/kg/injection, schedule: Q01DX005 (ip), vehicle: Klucel (hydroxypropylcellulose) (HPC)",0 of 6
same,survivor count,"dose: 200.0 mg/kg/injection, schedule: Q01DX005 (ip), vehicle: Klucel (hydroxypropylcellulose) (HPC)",0 of 6
CC(C)[CH2][Sn](=[O])[c]1ccccc1,survivor count,"dose: 3.12 mg/kg/injection, schedule: Q01DX009 (ip), vehicle: saline with Tween-80",3 of 6
same,survivor count,"dose: 6.25 mg/kg/injection, schedule: Q01DX009 (ip), vehicle: saline with Tween-80",1 of 6
same,survivor count,"dose: 12.5 mg/kg/injection, schedule: Q01DX009 (ip), vehicle: saline with Tween-80",0 of 6
same,survivor count,"dose: 50.0 mg/kg/injection, schedule: Q01DX009 (ip), vehicle: saline with Tween-80",0 of 6
same,survivor count,"dose: 100.0 mg/kg/injection, schedule: Q01DX009 (ip), vehicle: saline with Tween-80",0 of 6
same,survivor count,[1],0 of 6
Cc1ccc(-c2cs/c(=N\N=C3/CSC(=O)N3Cc3ccccc3)n2-c2ccccc2)cc1,survivor count,"dose: 400.0 mg/kg/injection, schedule: Q04DX002 (ip), vehicle: Klucel (hydroxypropylcellulose) (HPC)",6 of 6
